Source: US4732972A (Hoffmann-La Roche Inc., priority 1985, dated 1988)

Tests used:
[1] = general procedure: Boc solid-phase peptide synthesis; PAM resin; DCC; preformed symmetrical anhydride for Boc-Gln; DCC-1-hydroxybenzotriazole for; details: whole synthesis, scale approx. 80 μmol
[2] = general procedure: Boc solid-phase peptide synthesis; PAM resin (C-terminal acid); benzhydrylamine (BHA) resin (C-terminal amide); DCC; preformed symmetrical anhydride for Boc-Gln; DCC-1-hydroxybenzotriazole for; details: whole synthesis

Substance: (Leu^27)-GRF(1-44)-OH
- crude mass [1]: 332 mg
- difficulty met [2]: Noted exceptions which required multiple couplings
- isolated yield [2]: 5%
